From PubChem BioAssay AID590 (National Center for Advancing Translational Sciences (NCATS), 2007)
Hit rate of the full screen: of about 59,000 compounds, about 6,500 (11%) were called active. The inconclusive results got no clear call from the source; some entries with a clear call stand among them for comparison. No stated cut-off is given here; in the data, active means max dye-equivalent concentration above about 10 nM; inconclusive means mostly about 1.1 nM to 9.6 nM; inactive means weaker than that.

experiment: qHTS Assay for Spectroscopic Profiling in A350 Spectral Region; conditions: Compound autofluorescence, 340/450 nm, Alexa 350 dye-equivalents; active compounds read high

| Compound | max dye-equivalent concentration |
| --- | --- |
| CCC(C)NC(=O)N[C@@H](CCSC)C(=O)O (some centres not stated) | inconclusive: 5.8 nM |
| CCN(CC)Cc1cc2ccccc2c2c1COC2 | inconclusive: 7.5 nM |
| Cc1cc(NCCN2CCOCC2)n2nc(C)c(-c3ccc(Cl)cc3)c2n1 | inconclusive: 8.6 nM |
| N#Cc1cccc(-c2ccc3ncnc(N4CCNCC4)c3c2)c1 | inactive |
| CCOCCCNC(=O)C1CCN(c2cc(C)nc3c(-c4ccc(OC)c(OC)c4)c(C)nn23)CC1 | inconclusive: 6 nM |
| CCOCCCNc1ncc2c(n1)CC(c1ccc(C)cc1)CC2=O (configuration not stated) | inconclusive: 6.6 nM |
| Cn1c(=O)c2c(nc(CN3CCC(C(N)=O)CC3)n2CCCc2ccccc2)n(C)c1=O | inconclusive: 2 nM |
| CCOc1ccccc1NC=C1C(=O)OC(C)(C)OC1=O | inconclusive: 7 nM |
| Cc1noc(C)c1C(=O)N1CCC2(CC1)CN(Cc1cc(C(F)(F)F)cc(C(F)(F)F)c1)C2 | inactive |
| CCOc1ccc(NC(=O)CS(=O)CC(=O)NC2CCCc3ccccc32)cc1 (configuration not stated) | inconclusive: 2.4 nM |
| Cn1cccc1C(=O)N1CCC2(CC1)CN(Cc1cc(C(F)(F)F)cc(C(F)(F)F)c1)C2 | inactive |
| N=c1c2c3c(sc2nc2n1CCC2)CCCC3 | active: 21 nM |
| Cc1ccc2[nH]c(=O)c(CN(CC3CCCO3)C(=O)c3ccncc3)cc2c1 (configuration not stated) | inconclusive: 1.8 nM |
| O=C1c2sc3nc4ccccc4n3c2C(=O)N1c1ccccc1Cl | inactive |
| COc1ccc(CCNC(=O)C2CCN(S(=O)(=O)N3CCCCC3)CC2)cc1OC | inconclusive: 7.4 nM |
| CSc1nnc(-c2ccc(S(=O)(=O)N3CCOCC3)cc2)n1CC1CCCO1 (configuration not stated) | inactive |
| COC(=O)c1ccccc1NC(=O)c1noc2c1CCCC2 | inactive |
| COC(=O)c1[nH]c2cccc(OC)c2c1NC(=O)CCN1CCN(c2ccccc2F)CC1 | inconclusive: 2.8 nM |
| CCOc1ccc(/C(O)=C2/C(=O)C(=O)N(CCOCCO)C2c2cccnc2)cc1 (configuration not stated) | inconclusive: 1.2 nM |
| CC(C)N(Cc1cc2ccccc2[nH]c1=O)C(=O)c1cccnc1 | inconclusive: 5.7 nM |
| O=C(NCC(=O)N(c1ccccc1)C(C(=O)NCC1CCCO1)c1ccccc1)c1ccco1 (configuration not stated) | inactive |
| Cc1ccc(CNc2ccc3c(c2)OCO3)cc1 | inconclusive: 1.4 nM |
| COC(=O)n1c(=O)oc2cc(S(=O)(=O)N3CCCCC3)ccc21 | inconclusive: 6.6 nM |

| Compound | max dye-equivalent concentration |
| --- | --- |
| CC(=O)O[C@@H](C)C[N+](C)(C)C | inactive |
| Cc1cccc2cc(C#N)c(NCCNS(=O)(=O)c3ccc4c(c3)OCCO4)nc12 | active: 96 nM |
| Cc1nnc2c3ccccc3c(-c3ccccc3)nn12 | inconclusive: 1.7 nM |
| O=C(Nc1ccc(N2C(=O)C3C4C=CC(C4)C3C2=O)cc1)Nc1cccnc1 (configuration not stated) | inactive |
| C[C@@H]1C(=O)NC2=Nc3cccc(Cl)c3CN21 | inactive |
| COc1ccccc1C1(O)CCN(CC(=O)Nc2c(C)nn(C)c2C)CC1 | inconclusive: 1.3 nM |
| CC(=O)c1cccc(S(=O)(=O)N2CCN(c3nc4cc(C)cc(C)c4cc3C#N)CC2)c1 | active: 28 nM |
| O=C(CSc1nc(-c2ccc(F)cc2)cs1)N1CCOCC1 | inconclusive: 2 nM |
| O=c1[nH]c2ccccc2nc1-c1cccs1 | active: 1100 nM |
| Cc1sc2nc(C(C)C)nc(SCC(=O)NCc3ccco3)c2c1C | inactive |
| CCCOc1ccc(-c2nc(C#N)c(N3CCN(CC)CC3)o2)cc1 | inconclusive: 2.2 nM |
| COc1ccc(C(=O)NCc2nnc(SCC(=O)N3CCc4ccccc43)o2)cc1OC | inactive |
| CN(CCCn1c(=S)[nH]c2ncccc2c1=O)Cc1ccccc1 | inconclusive: 1.2 nM |
| c1cncc(-c2nc(-c3cccs3)cs2)c1 | inconclusive: 6 nM |
| O=c1cc(CNC2CCCCC2)c2ccccc2[nH]1 | inconclusive: 1.1 nM |
| CC(C)=CCc1c(O)cc(O)c2c1O[C@H](c1ccccc1)CC2=O | inconclusive: 3.2 nM |
| Cc1cc(C)c(C#N)c(SCC(=O)Nc2nnc(-c3ccccc3)s2)n1 | inconclusive: 4.3 nM |
| COc1cccc(OC)c1C(=O)Nc1ccc(N2CCN(S(C)(=O)=O)CC2)cc1 | inconclusive: 5.2 nM |
| CCC1(C)Cc2c(sc3nc(SCC(=O)O)[nH]c(=O)c23)CO1 (configuration not stated) | active: 17 nM |
| O=C(OCC(=O)N1CCN(C(=O)c2ccco2)CC1)c1cc(-c2ccccc2)nc2ccccc12 | active: 49 nM |
| CN1CCN(c2ncc3nc(CCc4ccccc4)c(=O)n(C4CC4)c3n2)CC1 | inactive |
| CSc1cccc(NC(=O)CN(C2CCCCC2)S(C)(=O)=O)c1 | inconclusive: 5.6 nM |
| CCOC(=O)CSc1nnc2n(Cc3ccccc3)c(=O)c3c4c(sc3n12)CCC4 | inactive |

| Compound | max dye-equivalent concentration |
| --- | --- |
| CSc1ccc(C2C3(C#N)C(N)=NC4(OCCO4)C23C#N)cc1 (configuration not stated) | inactive |
| Cc1cc(C)n(C2=NS(=O)(=O)c3ccccc32)n1 | inactive |
| COc1ccc2c(C)nc(Nc3nc(C)cc(=O)[nH]3)nc2c1 | inconclusive: 8.8 nM |
| O=C(CSc1nc2ccccc2c(=O)n1Cc1ccco1)NCc1ccccc1 | inconclusive: 2.9 nM |
| COc1ccc(OC)c(Nc2cc(-c3ccccc3)nc(N)n2)c1 | inconclusive: 1.2 nM |
| COc1ccc2cc3cc(C(=O)NCCCN4CCOCC4)oc3nc2c1 | active: 6400 nM |
| O=C(NCc1ccccc1)NC1(C(=O)N2CCN(c3ncccn3)CC2)CCCCC1 | inconclusive: 1.1 nM |
| CCn1cc(C(=O)OCc2cccc(Br)c2)c(=O)c2ccc(C)nc21 | inconclusive: 4.4 nM |
| CCOC(=O)c1c(C)oc2c(F)c(F)c(F)c(F)c2c1=O | inconclusive: 2.2 nM |
| CCC(=O)c1ccccc1OCCCn1cncn1 | inconclusive: 9.8 nM |
| CCOC(=O)C1=C(C)N=c2s/c(=C\c3ccncc3)c(=O)n2C1c1ccc2c(c1)OCO2 (configuration not stated) | inconclusive: 4.2 nM |
| CC(C)CN1CC[C@@]2(CCCN(S(=O)(=O)c3ccccc3)C2)C1 | inactive |
| O=C(c1ccccc1)c1ccccc1C(=O)N1CCOCC1 | inconclusive: 4.2 nM |
| O=C(CSc1nc(-c2ccco2)cc(C(F)(F)F)n1)NCc1cccs1 | inactive |
| COc1cc(C2/C(=C(\O)c3ccc4c(c3)CC(C)O4)C(=O)C(=O)N2CCCn2ccnc2)ccc1O (configuration not stated) | inconclusive: 2.7 nM |
| CC(C)CCN1CCNC(=O)C1CC(=O)Nc1ccc(F)cc1 (configuration not stated) | inconclusive: 1.9 nM |
| CCOC(=O)C1=C(N)OC2=C(C(=O)CC(C)(C)C2)C1c1ccco1 (configuration not stated) | inconclusive: 1.2 nM |
| N#Cc1nc(-c2cccs2)oc1N1CCOCC1 | active: 4500 nM |
| CCOC(=O)N1CCN(S(=O)(=O)c2ccc(C(=O)Nc3sc4c(c3C#N)CCC4)cc2)CC1 | active: 58 nM |
| CN(C)CCCN1C(=O)C(O)=C(C(=O)c2cc3ccccc3o2)C1c1ccccc1 (configuration not stated) | inactive |
| COCCCNC(=O)CS(=O)Cc1nc(-c2cccc(OC)c2)oc1C (configuration not stated) | inconclusive: 1.2 nM |
| CCn1c(SCC(=O)Nc2nnc(C)s2)nnc1-c1ccco1 | inconclusive: 1.2 nM |
| O=C(Nn1cc(C(=O)N2CCN(c3ccccc3F)CC2)c2ccccc2c1=O)c1cnccn1 | inconclusive: 1.8 nM |

Ordered by count of non-hydrogen atoms (high to low): seven of the compounds above.

| Compound | max dye-equivalent concentration |
| --- | --- |
| Cc1noc(C)c1C(=O)N1CCC2(CC1)CN(Cc1cc(C(F)(F)F)cc(C(F)(F)F)c1)C2 | inactive |
| O=C(NCc1ccccc1)NC1(C(=O)N2CCN(c3ncccn3)CC2)CCCCC1 | inconclusive: 1.1 nM |
| CCOc1ccc(/C(O)=C2/C(=O)C(=O)N(CCOCCO)C2c2cccnc2)cc1 (configuration not stated) | inconclusive: 1.2 nM |
| O=C(CSc1nc2ccccc2c(=O)n1Cc1ccco1)NCc1ccccc1 | inconclusive: 2.9 nM |
| CCOC(=O)c1c(C)oc2c(F)c(F)c(F)c(F)c2c1=O | inconclusive: 2.2 nM |
| CCN(CC)Cc1cc2ccccc2c2c1COC2 | inconclusive: 7.5 nM |
| c1cncc(-c2nc(-c3cccs3)cs2)c1 | inconclusive: 6 nM |

More entries

| Compound | max dye-equivalent concentration |
| --- | --- |
| O=c1[nH]cc(CS(=O)(=O)Cc2c[nH]c(=O)[nH]c2=O)c(=O)[nH]1 | inactive |
| COc1ccccc1NC(=O)Nc1ccnn1Cc1cccs1 | inactive |
| Cc1cc2cc(C(c3nnnn3Cc3ccco3)N3CCc4ccccc43)c(=O)[nH]c2cc1C (configuration not stated) | inconclusive: 2.7 nM |
| O=S(=O)(c1ccc(F)c(Cl)c1)N1CCCC1 | inconclusive: 3.4 nM |
| Cc1cc(C(F)(F)F)c2sc(N)nc2n1 | inconclusive: 7 nM |
| CCC(c1nnnn1C1CCCCC1)N(Cc1ccco1)Cc1cc2ccc(OC)cc2[nH]c1=O (configuration not stated) | inconclusive: 5.2 nM |
| CCOC(=O)c1c(NC(=O)c2noc3c2CCCC3)sc2c1CCCC2 | inconclusive: 3.6 nM |
| CCCc1cc(=O)[nH]c(/N=C(\N)Nc2ccccc2)n1 | inactive |
| CC(C)=N[C@H](C(=O)O)C(C)(C)S | inconclusive: 4.6 nM |
| COC(=O)c1c(NC(=O)c2cccs2)sc2c1CCCC2 | active: 65 nM |
| O=C(Nc1cccc(OCC(=O)N2CCOCC2)c1)C1CCCCC1 | inactive |
| O=[N+]([O-])c1cc(Cl)cc2c1nc(NCCO)c1ccccc12 | inactive |
| C[C@H]1CS(=O)(=O)CCN1/N=C\c1ccc([N+](=O)[O-])o1 | inactive |
| O=C(COC(=O)c1ccco1)NCC1CCCO1 (configuration not stated) | inactive |
| Nc1nc2sc3c(c2c(=O)s1)CCCC3 | inactive |
| O[C@@H](COc1ccc(Cl)cc1Cl)CN1CCCC1 | inactive |
| CCOC(=O)CCn1c2nc(C)cc(C)c2c(=O)n1-c1ccccc1 | active: 37 nM |
| O=C(c1cccc2c1C(=O)N(Cc1cccnc1)C2)N1CCN(c2ccccc2)CC1 | inactive |
| COc1ccc(Cn2c(=O)sc3ccccc32)cc1 | inconclusive: 2.4 nM |
| COc1cccc(CNc2nc3nc(C)cc(C)n3n2)c1 | active: 11 nM |
| CCOC(=O)CCc1c(C)nc2cc(C3CCCN(C(=O)OC(C)(C)C)C3)[nH]n2c1=O (configuration not stated) | inactive |
| COc1ccc(C(C(C(=O)c2ccco2)N2CCOCC2)N2CCOCC2)cc1 (configuration not stated) | inconclusive: 3.8 nM |
| N#CC1=C(N)N(c2ccccc2C#N)C2=C(C(=O)CCC2)C1c1ccsc1 (configuration not stated) | inactive |
